Test results from ChEMBL document CHEMBL4190192, “Interaction of 7-Alkoxycoumarins with the Aryl Hydrocarbon Receptor” (J Nat Prod, 2017).

Tests used:
[1] = molecular target: T1, Aryl hydrocarbon receptor (Homo sapiens, UniProt P35869); experiment: Antagonist activity at AhR (unknown origin) expressed in mouse H1L1.1c2 cells assessed as inhibition of FICZ-induced AhR activation at 1 to 100 uM after 8 to 10 hrs by luciferase reporter gene assay; format: cell-based
T1 sequence (P35869 whole entry): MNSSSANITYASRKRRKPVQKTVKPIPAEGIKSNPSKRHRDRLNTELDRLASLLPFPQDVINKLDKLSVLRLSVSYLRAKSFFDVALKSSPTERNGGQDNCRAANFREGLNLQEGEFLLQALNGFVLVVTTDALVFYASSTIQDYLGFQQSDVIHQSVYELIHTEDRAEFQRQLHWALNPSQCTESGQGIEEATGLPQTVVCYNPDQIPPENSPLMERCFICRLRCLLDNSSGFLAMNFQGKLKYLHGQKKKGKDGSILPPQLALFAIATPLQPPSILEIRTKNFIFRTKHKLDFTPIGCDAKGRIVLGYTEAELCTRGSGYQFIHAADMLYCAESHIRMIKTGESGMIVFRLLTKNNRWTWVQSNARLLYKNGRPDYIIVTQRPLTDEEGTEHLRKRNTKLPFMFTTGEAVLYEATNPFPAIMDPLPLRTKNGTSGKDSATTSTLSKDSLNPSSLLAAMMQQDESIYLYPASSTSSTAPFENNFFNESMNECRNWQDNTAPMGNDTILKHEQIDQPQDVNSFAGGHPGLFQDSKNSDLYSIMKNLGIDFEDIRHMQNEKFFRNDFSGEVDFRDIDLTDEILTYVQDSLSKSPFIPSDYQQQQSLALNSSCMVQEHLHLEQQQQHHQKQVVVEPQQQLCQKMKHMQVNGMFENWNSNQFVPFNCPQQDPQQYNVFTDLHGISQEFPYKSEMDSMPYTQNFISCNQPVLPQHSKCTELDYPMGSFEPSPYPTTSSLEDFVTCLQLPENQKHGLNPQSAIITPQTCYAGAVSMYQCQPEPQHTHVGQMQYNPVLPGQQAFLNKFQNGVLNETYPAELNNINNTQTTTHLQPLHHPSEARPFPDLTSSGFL

[2] = molecular target: T1, Aryl hydrocarbon receptor; experiment: Agonist activity at AhR (unknown origin) expressed in mouse H1L1.1c2 cells at 100 uM after 8 to 10 hrs by luciferase reporter gene assay; format: cell-based

- inhibition (INH) [1]: Not Active
- Activity [2]: Active
SMILES: O=c1ccc2ccc(OCc3ccccc3)cc2o1 [7-BENZYLOXYCOUMARIN]
